No constants are given. Whether binding was seen depends on the method and setting. For some assays here: Binding seen in cells or lysates may run through a third protein. Some entries that bind do so weakly or less than the wild type. For some assays here: Where a sequence is shown, tags or fusion partners need not be part of it. Blank lines part the entries; values can stand above or below the binder they belong to.
Experiments:
[1] = target: murine LIMP-2, full-length, heterologously expressed in HeLa cells (LIMP-2-myc; LIMP-2-HA) (murine) (UniProt O35114); test: co-IP; HeLa cells co-transfected with LIMP-2-myc and LIMP-2-HA for 48 h; lysate with anti-myc antibody overnight at 4 °C, magnetic agarose G beads; co-precipitated LIMP-2-HA detected with anti-HA
[2] = target: murine LIMP-2, full-length, heterologously expressed in HeLa cells (LIMP-2-myc; LIMP-2-HA) (murine) (UniProt O35114); test: SDS–PAGE (denaturing gel) and immunoblot; cell lysates on denaturing gels, immunoblot
[3] = target: murine LIMP-2, full-length, heterologously expressed in HeLa cells (LIMP-2-myc; LIMP-2-HA) (murine) (UniProt O35114); test: cross-linking; UV (365 nm, 15 min) cross-linking in HeLa cells labelled 24 h with photo-methionine (1.5 mM) and photo-leucine (3 mM); SDS–PAGE and immunoblot
[4] = target: murine LIMP-2, full-length, heterologously expressed in HeLa cells (LIMP-2-myc; LIMP-2-HA) (murine) (UniProt O35114); test: native gel or EMSA; Native PAGE Bis-Tris gel of cell lysates, immunoblot
[5] = target: endogenous LIMP-2 in wild-type mouse embryonic fibroblasts (mouse (endogenous in MEF)) (UniProt O35114); test: as above
[6] = target: endogenous full-length LIMP-2 in HeLa cells (human (endogenous in HeLa)) (UniProt Q14108); test: SDS–PAGE (denaturing gel) and immunoblot; cell lysates on denaturing gels, immunoblot
[7] = target: endogenous full-length LIMP-2 in HeLa cells (human (endogenous in HeLa)) (UniProt Q14108); test: cross-linking; UV (365 nm, 15 min) cross-linking in HeLa cells labelled 24 h with photo-methionine (1.5 mM) and photo-leucine (3 mM); SDS–PAGE and immunoblot
[8] = target: endogenous full-length LIMP-2 in HeLa cells (human (endogenous in HeLa)) (UniProt Q14108); test: native gel or EMSA; Native PAGE Bis-Tris gel of cell lysates, immunoblot

binding [1]: binds
binding [2]: binds
binding [3]: binds
binding [4]: binds
B1: murine LIMP-2, full-length, heterologously expressed in HeLa cells (LIMP-2-myc; LIMP-2-HA) (protein, UniProt O35114 1-478)
chain: MGRCCFYTAGTLSLLLLVTSVTLLVARVFQKAVDQTIEKNMVLQNGTKVFNSWEKPPLPVYIQFYFFNVTNPEEILQGEIPLLEEVGPYTYRELRNKANIQFGENGTTISAVTNKAYVFERNQSVGDPNVDLIRTINIPLLTVVDLAQLTLLRELIEAMLKAYQQKLFVIHTVHELLWGYKDEILSLVHIFKPDVSPNFGLFYERNGTNDGEYVFLTGEDNYLNFSKIVEWNGKTSLDWWTTDTCNMINGTDGDSFHPLISKDEVLYLFPSDLCRSVHITFSSFENVEGLPAFRYKVPAEILANTSENAGFCIPEGNCMDSGVLNISICKNGAPIIMSFPHFYQADEKFVSAIKGMHPNKEEHESFVDINPLTGIILRGAKRFQINTYVRKLDDFVETGDIRTMVFPVMYLNESVLIDKETANQLKSVINTTLVVTNIPYIIMALGVFFGLVFTWLACRGQGSMDEGTADERAPLIRT

binding [5]: binds
B2: endogenous LIMP-2 in wild-type mouse embryonic fibroblasts (protein, UniProt O35114 1-478)
chain: B1 chain

binding [6]: binds
binding [7]: binds
binding [8]: binds
B3: endogenous full-length LIMP-2 in HeLa cells (protein, UniProt Q14108 1-478)
chain: MGRCCFYTAGTLSLLLLVTSVTLLVARVFQKAVDQSIEKKIVLRNGTEAFDSWEKPPLPVYTQFYFFNVTNPEEILRGETPRVEEVGPYTYRELRNKANIQFGDNGTTISAVSNKAYVFERDQSVGDPKIDLIRTLNIPVLTVIEWSQVHFLREIIEAMLKAYQQKLFVTHTVDELLWGYKDEILSLIHVFRPDISPYFGLFYEKNGTNDGDYVFLTGEDSYLNFTKIVEWNGKTSLDWWITDKCNMINGTDGDSFHPLITKDEVLYVFPSDFCRSVYITFSDYESVQGLPAFRYKVPAEILANTSDNAGFCIPEGNCLGSGVLNVSICKNGAPIIMSFPHFYQADERFVSAIEGMHPNQEDHETFVDINPLTGIILKAAKRFQINIYVKKLDDFVETGDIRTMVFPVMYLNESVHIDKETASRLKSMINTTLIITNIPYIIMALGVFFGLVFTWLACKGQGSMDEGTADERAPLIRT

From publication PMC5712522 (Nature Communications, 2017)
